{"source": "paper doi:10.1101/2022.06.16.496509", "key": {"[1]": {"target": "T1, fatty acid-binding protein 7 (endogenous mouse FABP7) (mouse (endogenous in cerebellum)) (UniProt P51880)", "T1 sequence": "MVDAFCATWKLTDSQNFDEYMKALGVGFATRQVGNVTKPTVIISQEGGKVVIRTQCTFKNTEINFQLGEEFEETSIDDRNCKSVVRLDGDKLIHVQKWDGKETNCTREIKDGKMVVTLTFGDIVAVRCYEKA", "assay": "co-IP"}, "[2]": {"target": "His-hFABP7 (human fatty acid-binding protein 7 with an N-terminal 6X His-tag) (human), O15540", "conditions": "remark: other sources report otherwise"}}, "note": "Results are given in words; binding and its absence hold for the method and conditions named. For some assays here: In cells and extracts the contact can be indirect. Some binding calls cover weakened binding; strength is not graded here. For some assays here: Sequences can lack the tags named with a protein.", "data": [{"binder": "epsin-2 (protein, UniProt Q8CHU3 1-595) MTTSSIRRQMKNIVNNYSEAEIKVREATSNDPWGPSSSLMTEIADLTYNVVAFSEIMSMVWKRLNDHGKNWRHVYKALTLLDYLIKTGSERVAQQCRENIFAIQTLKDFQYIDRDGKDQGINVREKSKQLVALLKDEERLKVERVQALKTKERMAQVATGVGSNQITFGRGSSQPNLSTSYSEQEYGKAGGSPASYHGSTSPRVSSELEQARPQTSGEEELQLQLALAMSREVAEQSSESVQTARGSKEERLRRGDDLRLQMALEESRRDTVKVPKKKEAKACCKPGSHSQQTTLLDLMDALPSSGPVTQKTEPWSAGASANQTNPWGGTVAPSNITDPWPSFGTKPAASVDPWGVPTTASTQSVPKNSDPWAASQQPASNAGKTTDAWGAAKPSSASGSFELFSNFNGTVKDDFSEFDNLRTSKKPAESGASVPPQDSRTTSPDLFESQSLTSASSKPSSARKTPESFLGPNAALVNLDSLVTKPAPPAQSLNPFLAPGAAAPAPVNPFQVNQPQPLTLNQLRGSPVLGSSASFGSGPGVETVAPMTSVAPHSSVGASGSSLTPLGPTAMNMVGSVGIPPSAAQSTGTTNPFLL", "values": [{"measurement": "binding", "setting": "[1]", "value": "binds"}]}, {"binder": "His-hFABP7 (human fatty acid-binding protein 7 with an N-terminal 6X His-tag), O15540 1-132 (protein) MVEAFCATWKLTNSQNFDEYMKALGVGFATRQVGNVTKPTVIISQEGDKVVIRTLSTFKNTEISFQLGEEFDETTADDRNCKSVVSLDGDKLVHIQKWDGKETNFVREIKDGKMVMTLTFGDVVAVRHYEKA", "values": [{"measurement": "binding", "setting": "[2]", "value": "no binding (tested: 0.2 mg / ml)"}]}]}
